In PubChem BioAssay AID540276 (National Center for Advancing Translational Sciences (NCATS), 2011):
In all, about 300,000 compounds went through this assay and about 5,400 (1.8%) were called active. Inconclusive means that the source gave no clear call. Such entries were picked first, then a sample of the others. Calls follow the shape of the full dose curve; tested in HEK293 cells. Where the call is inconclusive, the potency comes from a doubtful curve fit. A structure can be active in one record and inactive in another.

Assay: qHTS for inhibitors of binding or entry into cells for Marburg Virus
Conditions: Marburg virus pseudotyped entry inhibition, cell reporter; activity change, negative = inhibition: at 37.8 µM (top of the series) unless noted
% is scaled to controls: 0 for no effect and ±100 for the full control effect; potency is read from the fitted curve at half-maximal effect.

Row | Structure (SMILES) | Potency | activity change, negative = inhibition
1 | O=C(NC1(C(F)(F)F)NC(=O)N(c2ccc(F)c(Cl)c2)C1=O)c1ccncc1 (configuration not stated) | inconclusive: 0.0651 µM [inhibitor, partial curve, poor fit] | –
2 | COc1ccc(NC(=O)CN2C(=O)NC(C)(c3ccccc3)C2=O)cc1Cl (configuration not stated) | – | inactive: -26.3% [at 46.1 µM]
3 | Cc1onc(-c2ccccc2)c1C(=O)Nc1ncc([N+](=O)[O-])s1 | inconclusive: 14.1 µM [inhibitor, partial curve, poor fit] | –
4 | COc1cccc(/C=N/Nc2snc(SC)c2C#N)c1 | inconclusive: 4.47 µM [inhibitor, full curve, poor fit] | –
5 | CCOc1cc(CNc2ccc(N3CCCCC3)cc2)cc(Br)c1OCC(=O)NC(C)(C)C | – | inactive: -29.9%
6 | COc1cc(C(=O)NCc2ccccc2)ccc1OC(F)F | – | inactive: 8.57%
7 | COc1cccc(CNC(=O)CCC2CCCN(Cc3ccc(OC(F)F)cc3)C2)c1 (configuration not stated) | inconclusive: 15.8 µM [inhibitor, partial curve, poor fit] | –
8 | O=C1c2ccccc2C(=O)N1CCSc1ccccc1 | inconclusive: 11.6 µM [activator, partial curve, poor fit] | –
9 | Cc1cccc(-c2nnc3sc(-c4ccccc4)nn23)c1 | inconclusive: 18.3 µM [activator, partial curve, poor fit] | –
10 | COc1cc(NC(=O)c2ccco2)ccc1NC(=O)c1ccccc1Cl | inconclusive: 28.2 µM [inhibitor, single point] | –
11 | CNCC(O)c1ccc(O)cc1 (configuration not stated) | inconclusive: 0.316 µM [inhibitor, full curve, poor fit] | –
12 | CCN(CC)S(=O)(=O)c1cc(C(=O)OCC(=O)Nc2cccc(Br)c2)ccc1F | inconclusive: 1.26 µM [inhibitor, partial curve, poor fit] | –
13 | O=C(/C=C/c1ccccc1)/C=C/c1ccccc1 | active: 9.2 µM | –
14 | COc1ccc(Nc2n[nH]c(C)c2[N+](=O)[O-])cc1 | – | inactive: -0.0202%
15 | Cc1cc(C)n(-c2ccc(C(=O)Nc3ccc(S(=O)(=O)NCc4ccco4)cc3)cc2)n1 | active: 12.6 µM | –
16 | Cc1ccc2oc(-c3ccc(Cl)cc3)c(O)c(=O)c2c1 | inconclusive: 7.08 µM [activator, full curve, poor fit] | –
17 | Nc1nonc1-n1nnc(C(=O)N/N=C/c2ccccc2)c1CSc1ccc(Cl)cc1 | inconclusive: 35.5 µM [activator, single point] | –
18 | Cc1sc2ncnc(Sc3ccccc3C(=O)Nc3ccc(Br)cc3)c2c1C | – | inactive: -18.4%
19 | Cc1ccc(NS(=O)(=O)c2cc(C(=O)Nc3cccc([N+](=O)[O-])c3)ccc2C)cc1 | inconclusive: 29.1 µM [inhibitor, single point] | –
20 | O=C1c2ccc3c4c(ccc(c24)C(=O)N1NC(=O)C(F)(F)F)CC3 | – | inactive: 4.39%
21 | CC(NC(=O)c1ccco1)C(c1cccs1)N1CCN(c2ccc(F)cc2)CC1 (configuration not stated) | inconclusive: 29.1 µM [inhibitor, single point] | –
22 | COc1ccc(C(=O)COc2ncnc3cc(Cl)ccc23)cc1 | – | inactive: -8.26% [at 46.1 µM]
23 | COc1ccc(CC(=O)NCc2ccccn2)cc1OC | – | inactive: 6.27%

Arranged by SMILES length (ascending): part of the list above
Row | Structure (SMILES) | Potency | activity change, negative = inhibition
8 | O=C1c2ccccc2C(=O)N1CCSc1ccccc1 | inconclusive: 11.6 µM [activator, partial curve, poor fit] | –
20 | O=C1c2ccc3c4c(ccc(c24)C(=O)N1NC(=O)C(F)(F)F)CC3 | – | inactive: 4.39%
12 | CCN(CC)S(=O)(=O)c1cc(C(=O)OCC(=O)Nc2cccc(Br)c2)ccc1F | inconclusive: 1.26 µM [inhibitor, partial curve, poor fit] | –

(continued)

Row | Structure (SMILES) | Potency | activity change, negative = inhibition
24 | O=C(Oc1ccccc1)c1cccc2cccnc12 | – | inactive: 4.9%
25 | N#C/C(=C(/O)COc1ccccc1)c1nc2ccccc2s1 | – | inactive: 16.3% [at 46.1 µM]
26 | Cc1cccc(C)c1NC(=O)Cn1cc(C(=O)c2ccco2)c2ccccc21 | inconclusive: 6.31 µM [inhibitor, single point] | –
27 | COc1ccc(-c2nc(CN3CCN(c4cc(C)nc(C)c4)CC3)c(C)o2)c2ccccc12 | inconclusive: 6.31 µM [inhibitor, full curve, poor fit] | –
28 | C1CC1Cc1noc(CN2CCN(CC3CC3)CC2)n1 | inconclusive: 0.1 µM [inhibitor, full curve, poor fit] | –
29 | Cc1cccc(C)c1NC(=O)c1cccc(C(=O)Nc2c(C)cccc2C)n1 | inconclusive: 1 µM [inhibitor, full curve, poor fit] | –
30 | O=C(NCCC1=CCCCC1)C(=O)NCC1OCCCN1S(=O)(=O)c1ccc(F)cc1 (configuration not stated) | inconclusive: 11.2 µM [inhibitor, partial curve, poor fit] | –
31 | Cc1cc(NC(=S)NC(=O)c2ccccc2)ccc1-c1cc2ccccc2oc1=O | inconclusive: 6.31 µM [inhibitor, partial curve, poor fit] | –
32 | COc1ccc(OCC(=O)Nc2ccccc2-c2ccccc2)cc1 | inconclusive: 10 µM [inhibitor, partial curve, poor fit] | –
33 | CC(=O)c1ccc(NC(=O)C(C)n2nc(-c3ccccc3)ccc2=O)cc1 (configuration not stated) | – | inactive: 18.7% [at 46.1 µM]
34 | CCOc1ccc(NC(=O)CN(C)C(=O)CCCc2nc3ccccc3c(=O)[nH]2)cc1OCC | inconclusive: 4.47 µM [inhibitor, full curve, poor fit] | –
35 | CCC(C)N(C(=O)COC(=O)CNC(=O)c1sc2ccccc2c1Cl)C1CCS(=O)(=O)C1 (configuration not stated) | – | inactive: 22.6%
36 | Brc1cccc(CNn2cnnc2)c1 | inconclusive: 15.8 µM [inhibitor, single point] | –
37 | N/C(=N\OC(=O)c1cccc2ccccc12)c1cccnc1 | inconclusive: 29.1 µM [inhibitor, single point] | –
38 | Clc1ccc(-c2nnc3c4ccccc4nc(N4CCOCC4)n23)cc1Cl | inconclusive: 0.562 µM [inhibitor, full curve, poor fit] | –
39 | COc1ccc(OC[C@H](O)Cn2c(Nc3cccc(C)c3)nc3c2c(=O)n(C)c(=O)n3C)cc1 | inconclusive: 11.2 µM [inhibitor, partial curve, poor fit] | –
40 | CC1(C)Cc2cccc(OCC(=O)OCC(=O)NCc3ccccc3)c2O1 | inconclusive: 35.5 µM [activator, single point] | –
41 | COc1cccc(-c2nnc(SCC(=O)N(C)c3ccccc3)o2)c1 | – | inactive: 15.9% [at 46.1 µM]
42 | Cc1ccc(Cn2c(N3CCN(C)CC3)nc3c2c(=O)[nH]c(=O)n3C)cc1 | inconclusive: 3.16 µM [inhibitor, partial curve, poor fit] | –
43 | COc1cc(C(=O)Oc2cccc(/C=N/NC(=O)c3cccnc3)c2)cc(OC)c1OC | inconclusive: 5.01 µM [inhibitor, partial curve] | –
44 | O=C(CSc1nc2ccccc2s1)NC(=O)NCc1ccco1 | inconclusive: 2.91 µM [activator, full curve, poor fit] | –
45 | COc1cc2c(cc1OC)C(Cc1ccc(O)cc1)NCC2 (configuration not stated) | inconclusive: 32.6 µM [inhibitor, single point] | –
46 | CCC(CO)(C(=O)OC1C[N+]2(C)CCC1CC2)c1ccccc1 (configuration not stated) | inconclusive: 35.5 µM [activator, single point] | –

Row | Structure (SMILES) | Potency | activity change, negative = inhibition
47 | O=C(Nc1ncc(Cc2cccc(Cl)c2)s1)c1cccs1 | active: 10 µM | –
48 | O=C(NCC1CCCO1)C1c2ccccc2C(=O)N1C1CCCCCCC1 (configuration not stated) | inconclusive: 7.08 µM [inhibitor, partial curve, poor fit] | –
49 | Cc1ccc(-c2nnc(SCC(=O)Nc3ccccc3N3CCOCC3)o2)cc1 | – | inactive: 1.82%
50 | CC(C)(C)NC(=O)C(c1c[nH]c2ccccc12)N(C(=O)Cn1nnc(-c2ccc(F)cc2)n1)c1cccc(O)c1 (configuration not stated) | active: 11.2 µM | –
51 | CN(C)CCCN(C(=O)c1ccco1)c1nc2c(F)cc(F)cc2s1 | inconclusive: 25.1 µM [inhibitor, single point] | –
52 | CC1=CC(=O)C(C(C)=Nc2ccccc2[N+](=O)[O-])C(=O)O1 (configuration not stated) | – | inactive: 0.575%
53 | O=C(Cc1c(F)cccc1Cl)Nc1ccncc1 | – | inactive: 0.95%
54 | C=CCn1cccc(C(=O)Nc2ccc(C)c(C)c2)c1=O | inconclusive: 7.94 µM [activator, partial curve] | –
55 | Cc1cccc(Nc2ncnc(N)n2)c1 | – | inactive: 5.08% [at 46.1 µM]
56 | O=C1OC(c2ccc3c(c2)OCO3)N(C(=O)c2ccc(Cl)c(Cl)c2)c2ccccc21 (configuration not stated) | inconclusive: 35.5 µM [activator, single point] | –
57 | CCC(C)NC(=O)Cn1c(=O)n(CCCCCC(=O)Nc2ccccc2)c(=O)c2sccc21 (configuration not stated) | inconclusive: 22.4 µM [activator, single point] | –
58 | COCC(C)NC(=O)NC1(C(F)(F)F)Oc2ccc(Cl)cc2O1 (configuration not stated) | inconclusive: 20.6 µM [inhibitor, single point] | –
59 | Cc1c(C(=O)N2CCCc3ccccc32)oc2ccc(S(=O)(=O)N3CCOCC3)cc12 | inconclusive: 20.6 µM [inhibitor, single point] | –
60 | CC1=C(C(=O)Nc2ccccn2)C(c2ccc(Br)cc2)NC(=S)N1 (configuration not stated) | inconclusive: 5.8 µM [activator, partial curve, poor fit] | –
61 | CCc1cccc(C)c1NC(=O)CCCn1c(C)c2cnn(-c3ccccc3)c(=O)c2c1C | inconclusive: 12.6 µM [inhibitor, partial curve, poor fit] | –
62 | Cc1ccc(-c2[nH]ncc2/C=N/n2c(C)nc3ccccc3c2=O)cc1 | – | inactive: 0% [at 14.2 µM]
63 | COc1cccc(C2CC(c3ccc(NS(C)(=O)=O)cc3)=NN2C(=O)c2ccccc2)c1OC (configuration not stated) | inconclusive: 0.562 µM [inhibitor, full curve, poor fit] | –
64 | Cc1c(/C=C2\SC(=O)N(CC(=O)Nc3ccc4c(c3)OCO4)C2=O)c2ccccc2n1C | inconclusive: 16.4 µM [inhibitor, partial curve] | –
65 | CCc1cccc(CC)c1NC(=O)c1c(C)oc2ccc(O)c(CN3CCN(C)CC3)c12 | inconclusive: 10 µM [inhibitor, partial curve, poor fit] | –
66 | Cc1cccc(N2CCN(C(=O)Cn3ncc4c3-c3cc(C)ccc3OC4)CC2C)c1 (configuration not stated) | inconclusive: 35.5 µM [inhibitor, single point] | –
67 | Cc1ccn(CCC(=O)N2CCCC(CCC(=O)NCc3ccc(F)c(F)c3)C2)n1 (configuration not stated) | – | inactive: 2.43% [at 46.1 µM]
